Our source for the binding values is publication PMC8745066.

Sequences of proteins named here, by UniProt entry; tags and fusion partners are left off.
UniProt Q9GZV5: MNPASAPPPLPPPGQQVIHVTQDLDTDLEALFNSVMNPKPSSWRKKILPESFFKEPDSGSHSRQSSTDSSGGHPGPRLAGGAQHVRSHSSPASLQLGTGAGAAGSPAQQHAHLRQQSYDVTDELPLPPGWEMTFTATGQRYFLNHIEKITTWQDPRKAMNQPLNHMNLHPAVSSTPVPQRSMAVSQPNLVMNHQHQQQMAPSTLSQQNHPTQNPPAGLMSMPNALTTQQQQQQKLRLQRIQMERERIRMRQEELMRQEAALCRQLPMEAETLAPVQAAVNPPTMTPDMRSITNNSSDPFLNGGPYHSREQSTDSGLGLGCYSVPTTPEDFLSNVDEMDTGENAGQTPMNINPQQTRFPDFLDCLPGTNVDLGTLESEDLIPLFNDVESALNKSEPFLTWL

The assay concerns the target T1, Claudin 6 (CLDN6) (UniProt P56747).
T1 sequence: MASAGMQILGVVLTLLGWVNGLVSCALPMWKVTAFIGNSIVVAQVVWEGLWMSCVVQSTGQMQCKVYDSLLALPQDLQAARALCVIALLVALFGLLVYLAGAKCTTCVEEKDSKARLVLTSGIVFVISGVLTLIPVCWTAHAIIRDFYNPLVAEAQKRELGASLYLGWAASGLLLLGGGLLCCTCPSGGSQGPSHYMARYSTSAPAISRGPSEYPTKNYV
The assay can be described thus: co-IP; IP with anti-CLDN6 antibody (E2S5M, Cell Signaling Technology) from MCF-7/CLDN6 and MDA-MB-231/CLDN6 cells; TAZ detected in the precipitate; procedure as in ref. 45.

These are yes or no findings as the source states them, for the method shown. In cells and extracts the contact can be indirect. Some entries that bind do so weakly or less than the wild type.

With “transcriptional co-activator with PDZ-binding motif (TAZ) (from UniProt Q9GZV5 1-400)”, the binding result is recorded as “binds”.
